Reference: patent US20080181886A1, “Polypeptides That Bind Baff And/Or April” (Genentech, Inc., priority 2004, published 2008)
No constants are given. Whether binding was seen depends on the method and setting. Some entries that bind do so weakly or less than the wild type.

Sequences of proteins named here, by UniProt entry; tags and fusion partners are left off. A change or cut given only in a name is not applied to a line headed by its entry. Residues count along the entry.
UniProt Q9Y275: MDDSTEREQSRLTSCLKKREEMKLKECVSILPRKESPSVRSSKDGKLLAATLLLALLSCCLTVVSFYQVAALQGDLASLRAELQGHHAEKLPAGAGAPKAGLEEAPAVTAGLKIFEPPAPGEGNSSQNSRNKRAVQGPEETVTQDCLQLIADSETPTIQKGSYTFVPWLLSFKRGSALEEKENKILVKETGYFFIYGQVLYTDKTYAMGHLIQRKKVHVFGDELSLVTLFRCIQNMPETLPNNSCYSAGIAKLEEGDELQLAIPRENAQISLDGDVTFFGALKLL
UniProt Q9D777, residues 104-241: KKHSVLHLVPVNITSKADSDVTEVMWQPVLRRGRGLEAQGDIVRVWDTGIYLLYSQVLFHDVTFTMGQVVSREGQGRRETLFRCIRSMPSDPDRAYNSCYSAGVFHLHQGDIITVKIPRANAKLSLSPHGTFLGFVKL

Assays:
human BAFF (human) [1] = molecular target: human BAFF (human) (UniProt Q9Y275); assay: SPR competition, FIG. 3B
TRX-APRIL (mouse) = TRX-APRIL (mouse) (UniProt Q9D777); assay: SPR competition
human BAFF (human) [2] = molecular target: human BAFF (human) (UniProt Q9Y275); assay: SPR competition
human BAFF (human) [3] = molecular target: human BAFF (human) (UniProt Q9Y275); assay: SPR competition, FIG. 8B

Measured: binding

RSCPEEQYWDPLLGTCMSCKTICNHQSQRTCAAFCR (receptor) [TACI_d1 (first CRD of TACI, residues 32-67)]
binds: all assays above

RSCPEEQYWDPLLGTCMSCKTICGQHPKQCAAFCR (receptor) [hTACI CRD1 LS (human TACI CRD1 R32-R67 with NHQSQRT replaced by GQHPKQ of CRD2)]
binds: TRX-APRIL (mouse) | human BAFF (human) [2]
